The test deals with HEK293A TEAD-LUC reporter. Nature of the test: TEAD-luciferase reporter activity (YAP activation), robust Z score vs plate; higher = stronger YAP/TEAD activation. Particulars: 24 h. A general note: Reporter assays use an easily measured gene product as a stand-in for the process of interest.

“And” between values parts separate entries of the source, which are not always exact repeats. Identical values can stand only once. Counter-ions that a name gives are not always drawn. The list shows a part of the results. This data set is noisy: repeats of one test often differ as much as different tests do.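 Human kidney-derived cells stably carry a construct in which eight TEAD-binding elements drive luciferase, measured by luminescence in a drug-repurposing library screen. A hit is any compound whose signal exceeds the plate mean by more than five robust Z scores.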

Drawing on the supplement of paper PMC10735217, this text covers TEAD-luciferase reporter activity for 26 molecules.

With `Cc1cccc(OCC(O)CNC(C)C)c1` (stereo not given), the TEAD-luciferase reporter activity is inactive: 0.0218 (compound concentration: 200 nM), inactive: -0.881 (compound concentration: 2 uM) and inactive: 3.09 (compound concentration: 10 uM).

As to `COc1cc2c(cc1OC)[C@@H]1CN(C)CC[C@@H]1N=C2c1ccc(NC(C)=O)cc1` [Benafentrine dimaleate], the TEAD-luciferase reporter activity reads like this: (compound concentration: 200 nM) inactive: 0.311; (compound concentration: 2 uM) inactive: -1.65; (compound concentration: 10 uM) inactive: 1.31.

On to `C=CC(=O)Nc1ccc2ncnc(Nc3cc(Cl)c(Cl)cc3F)c2c1`, for which the TEAD-luciferase reporter activity is inactive: -1.3 (compound concentration: 200 nM), inactive: -1.22 (compound concentration: 2 uM) and inactive: -1.1 (compound concentration: 10 uM).

On to `CN(C)CC1CCOC1(c1ccccc1)c1ccccc1` (stereo not given), for which the TEAD-luciferase reporter activity (compound concentration: 200 nM) is inactive: 0.329, the TEAD-luciferase reporter activity (compound concentration: 2 uM) is inactive: -1.03 and the TEAD-luciferase reporter activity (compound concentration: 10 uM) was inactive: -1.19.

For `Cc1cc2ccccn2c1C(=O)c1ccc(Oc2ccccc2)cc1`, the TEAD-luciferase reporter activity by setting is: (compound concentration: 200 nM) inactive: -0.441; (compound concentration: 2 uM) inactive: -0.276; (compound concentration: 10 uM) inactive: -0.995.

Regarding `C[C@@H]1CC2C3C[C@H](F)C4=CC(=O)C=CC4(C)[C@@]3(F)C(O)CC2(C)[C@@]1(O)C(=O)COC(=O)C(C)(C)C` (stereo not given in full), the TEAD-luciferase reporter activity is, setting by setting: (compound concentration: 200 nM) inactive: 0.323; (compound concentration: 2 uM) inactive: -0.0129; (compound concentration: 10 uM) inactive: -0.347.

For `COC(=O)N[C@H](C(=O)N1CCC[C@H]1C(=O)Nc1ccc([C@@H]2CC[C@@H](c3ccc(NC(=O)[C@@H]4CCCN4C(=O)[C@@H](NC(=O)OC)C(C)C)cc3)N2c2ccc(C(C)(C)C)cc2)cc1)C(C)C` [Ombitasvir], the TEAD-luciferase reporter activity runs as follows: (compound concentration: 200 nM) inactive: 0.429; (compound concentration: 2 uM) inactive: -0.506; (compound concentration: 10 uM) inactive: -1.14.

In the case of `N=C(N)NCCCNC(=O)[C@@H]1CCCCN1C(=O)[C@@H](CC1CCCCC1)NCC(=O)O`, the TEAD-luciferase reporter activity (compound concentration: 200 nM) is inactive: 0.771, the TEAD-luciferase reporter activity (compound concentration: 2 uM) was inactive: -1.42 and the TEAD-luciferase reporter activity (compound concentration: 10 uM) is inactive: -0.708.

`COC(=O)c1c2n(c3ccccc13)Cc1ccccc1N1CCN(C)CC21` (stereo not given): the TEAD-luciferase reporter activity runs as follows: (compound concentration: 200 nM) inactive: -2.02; (compound concentration: 2 uM) inactive: -0.65; (compound concentration: 10 uM) active: 5.6.

Turning to `CNCC=C(c1ccccc1)c1ccccc1`, the TEAD-luciferase reporter activity (compound concentration: 200 nM) was inactive: -0.723, the TEAD-luciferase reporter activity (compound concentration: 2 uM) is inactive: -1.66 and the TEAD-luciferase reporter activity (compound concentration: 10 uM) is inactive: 0.18.

For `CC(N1CCN(c2ccc(-n3cnn(Cc4ccc(OC(F)(F)F)cc4)c3=O)cc2)CC1)C(O)(Cn1cncn1)c1ccc(F)cc1F` (stereo not given), the TEAD-luciferase reporter activity was inactive: 0.216 (compound concentration: 200 nM), inactive: 0.292 (compound concentration: 2 uM) and inactive: 1.75 (compound concentration: 10 uM).

Regarding `C[S+](CC[C@H](N)C(=O)[O-])C[C@H]1O[C@@H](n2cnc3c(N)ncnc32)[C@H](O)[C@@H]1O` (stereo not given in full) [Ademetionine], the TEAD-luciferase reporter activity runs as follows: (compound concentration: 200 nM) inactive: -0.983; (compound concentration: 2 uM) inactive: -0.731; (compound concentration: 10 uM) inactive: 4.71.

In the case of `O=C(CCCN1CCC(C(=O)c2ccc(F)cc2)CC1)c1ccc(F)cc1`, the TEAD-luciferase reporter activity reads like this: (compound concentration: 200 nM) inactive: 3.63; (compound concentration: 2 uM) inactive: -0.191; (compound concentration: 10 uM) inactive: -0.834.

Turning to `NCC(=O)N1Cc2ccccc2CC12CCCN(C(=O)c1ccccc1)C2` (stereo not given), the TEAD-luciferase reporter activity was inactive: -1.73 (compound concentration: 200 nM) and inactive: -1.25 (compound concentration: 10 uM).

`CC(C)(O)c1nc2ccccc2cc1N`: the TEAD-luciferase reporter activity is inactive: 2.51 (compound concentration: 200 nM), inactive: -0.364 (compound concentration: 2 uM) and inactive: 2.27 (compound concentration: 10 uM).

As to `Oc1ccc(CC2NCCc3cc(O)c(O)cc32)cc1` (stereo not given) [Norcoclaurine], the TEAD-luciferase reporter activity reads like this: (compound concentration: 200 nM) inactive: -0.552; (compound concentration: 2 uM) inactive: -0.327; (compound concentration: 10 uM) inactive: 2.3.

As to `O=C(NO)c1ccc(C2=Nc3ccccc3Oc3ccccc32)cc1`, the TEAD-luciferase reporter activity by setting is: (compound concentration: 200 nM) inactive: -0.13; (compound concentration: 2 uM) active: 9.2; (compound concentration: 10 uM) active: 22.7.

Turning to `CC(C)Oc1cc(Nc2nc(N[C@@H](C)c3ccc(F)cc3)c(C#N)cc2F)[nH]n1`, the TEAD-luciferase reporter activity (compound concentration: 200 nM) is inactive: -1.34 and inactive: -0.53; the TEAD-luciferase reporter activity (compound concentration: 2 uM) is inactive: -1.57 and inactive: -1.11; the TEAD-luciferase reporter activity (compound concentration: 10 uM) is inactive: -1.88 and inactive: 1.15.

Turning to `CN1CCC(CN2c3ccccc3Sc3ccccc32)C1` (stereo not given) [Methdilazine Hydrochloride], the TEAD-luciferase reporter activity (compound concentration: 200 nM) is inactive: -0.635, the TEAD-luciferase reporter activity (compound concentration: 2 uM) is inactive: -0.0405 and the TEAD-luciferase reporter activity (compound concentration: 10 uM) was inactive: 2.32.

In the case of `COCc1nn2c(CN3C[C@@H](CC(F)(F)Cl)CC3=O)c(C(F)(F)F)nc2s1` [Padsevonil], the TEAD-luciferase reporter activity (compound concentration: 200 nM) is inactive: 0.31 and the TEAD-luciferase reporter activity (compound concentration: 10 uM) was inactive: 1.47.

Consider `Cc1ccc(O)c(NCCCN2CCN(C(c3ccc(F)cc3)c3ccc(F)cc3)CC2)c1`, for which the TEAD-luciferase reporter activity (compound concentration: 200 nM) was inactive: -0.164, the TEAD-luciferase reporter activity (compound concentration: 2 uM) was inactive: 1.06 and the TEAD-luciferase reporter activity (compound concentration: 10 uM) was inactive: -0.174.

Turning to `COc1ccccc1OC(=O)C(C)c1ccc(CC(C)C)cc1` (stereo not given) [methoxybutropate], the TEAD-luciferase reporter activity is inactive: 1.43 (compound concentration: 200 nM), inactive: 0.987 (compound concentration: 2 uM) and inactive: -1.02 (compound concentration: 10 uM).

Take `COCCCc1ccc2oc(-c3ccc(OC)c(OC)c3)cc2c1`: the TEAD-luciferase reporter activity by setting is: (compound concentration: 200 nM) inactive: -0.258; (compound concentration: 2 uM) inactive: -0.316; (compound concentration: 10 uM) inactive: 1.5.

In the case of `CC1CCCCN1CCCOC(=O)c1ccccc1` (stereo not given), the TEAD-luciferase reporter activity (compound concentration: 200 nM) is inactive: -0.994, the TEAD-luciferase reporter activity (compound concentration: 2 uM) was inactive: -0.266 and the TEAD-luciferase reporter activity (compound concentration: 10 uM) was inactive: -0.188.

Consider `CCCCOc1cc(CC2CNC(=O)N2)ccc1OC` (stereo not given), for which the TEAD-luciferase reporter activity is inactive: -1.17 (compound concentration: 200 nM), inactive: 0.38 (compound concentration: 2 uM) and inactive: 0.588 (compound concentration: 10 uM).

For `O=C(O[C@@H]1Cc2c(O)cc(O)cc2O[C@@H]1c1cc(O)c(O)c(O)c1)c1cc(O)c(O)c(O)c1` [Epigallocatechin gallate989-51-5], the TEAD-luciferase reporter activity by setting is: (compound concentration: 200 nM) inactive: 0.223; (compound concentration: 10 uM) inactive: 1.22.
